Measurements taken from PubChem BioAssay AID256 (DTP/NCI, 2004).
The list is a part of this screen's results and no random one: it is rich in T/C values a quarter to a half above the control, in often repeated tests (any T/C) and in doses without a T/C. Further doses and runs are listed elsewhere. T/C: endpoint of the treated group in % of that of the vehicle group. Some entries give survivors of the animals treated and no T/C: the source files T/C as zero there, which appears to mark a toxic dose or a test without result, not a measured value. Some survivor counts are full or nearly so, which does not show that the dose was tolerated: survival well below the control is almost never listed, so the zero probably covers shortened survival too. Counts of survivors are from the toxicity check (mostly the fifth day) where no day follows; animals may have died later. Schedules are NCI's codes, read here as Q, the interval in days (D) or hours (H), X, the number of doses. Some doses were run more than once; their values stand side by side, smallest first. For survival time, this PubChem deposit counts one and a half times the control or more as active, and values a quarter to a half above the control carry no call in these data; other NCI protocols may use other cut-offs. Some T/C values are followed by the survivors on the day toxicity was checked, most often the fifth; without a count, all were alive then.

System: CD2F1 mice, L1210 leukemia ip, survival T/C
Test: NCI In Vivo Anticancer Drug Screen. Data for tumor model L1210 Leukemia (intraperitoneal) in CD2F1 (CDF1) mice
Conditions: higher T/C = longer survival
Procedure, shortened: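 Compound-dosed mice with transplantable tumor versus matched vehicle controls; endpoint ratio T/C reported.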

[1] = T/C endpoint: mean survival time, dose: 400.0 mg/kg/injection, schedule: Q01DX009 (ip), vehicle: saline with Tween-80
[2] = T/C endpoint: mean survival time, dose: 100.0 mg/kg/injection, schedule: Q04DX003 (ip), vehicle: saline with Tween-80
[3] = T/C endpoint: mean survival time, dose: 200.0 mg/kg/injection, schedule: Q04DX003 (ip), vehicle: saline with Tween-80
[4] = T/C endpoint: mean survival time, dose: 400.0 mg/kg/injection, schedule: Q04DX003 (ip), vehicle: saline with Tween-80

SMILES: CCCCCCCCCCCCCCCCNS(=O)(=O)c1ccc2sc(SC)nc2c1
- survivor count (T/C endpoint: mean survival time, dose: 50.0 mg/kg/injection, schedule: Q04DX002 (ip), vehicle: saline with Tween-80): 3 of 3

SMILES: C[NH-].C[NH-].[Cl][Pt+2][Cl]
- survivor count (T/C endpoint: mean survival time, dose: 20.0 mg/kg/injection, schedule: Q04DX003 (ip), vehicle: water): 10 of 10
- survivor count (T/C endpoint: mean survival time, dose: 40.0 mg/kg/injection, schedule: Q04DX003 (ip), vehicle: water): 7 of 10

SMILES: O=C(O)/C=C\C(=O)Nc1ccc(Cl)cc1Cl
- survivor count [1]: 1 of 6

SMILES: CCCCCC(C)C1=NC(C)(C)CC(C)O1 (configuration not stated)
- survivor count (T/C endpoint: mean survival time, dose: 400.0 mg/kg/injection, schedule: Q01DX001 (ip), vehicle: saline with Tween-80): 0 of 6

SMILES: Nc1ccc(N)c(N)n1
- survivor count [2]: 0 of 6
- survivor count [3]: 0 of 6
- survivor count [4]: 0 of 6

SMILES: C[C@H](N)C(=O)N[C@@H]1[C@H]2C(=C(O)C[C@@H](O)[C@@H]2O)C(=O)O[C@]1(C)C(Cl)Cl
- T/C (T/C endpoint: median survival time, dose: 0.19 mg/kg/injection, schedule: Q01DX009 (ip), vehicle: saline): 137 % of control
- T/C (T/C endpoint: median survival time, dose: 0.37 mg/kg/injection, schedule: Q01DX009 (ip), vehicle: saline): 132 % of control
- T/C (T/C endpoint: median survival time, dose: 0.38 mg/kg/injection, schedule: Q01DX009 (ip), vehicle: saline): 135 % of control
- survivor count (T/C endpoint: median survival time, dose: 0.56 mg/kg/injection, schedule: Q03HX024 (ip), vehicle: saline): 2 of 10
- T/C (T/C endpoint: median survival time, dose: 0.68 mg/kg/injection, schedule: Q01DX005 (ip), vehicle: saline): 130 % of control
- T/C (T/C endpoint: median survival time, dose: 0.75 mg/kg/injection, schedule: Q01DX009 (ip), vehicle: Klucel (hydroxypropylcellulose) (HPC)): 117, 143, 155, 163 % of control
- T/C (T/C endpoint: median survival time, dose: 0.75 mg/kg/injection, schedule: Q01DX009 (ip), vehicle: water): 129 % of control
- survivor count (T/C endpoint: median survival time, dose: 0.85 mg/kg/injection, schedule: Q03HX008 (ip), vehicle: saline): 0 of 10
- survivor count (T/C endpoint: median survival time, dose: 1.13 mg/kg/injection, schedule: Q03HX024 (ip), vehicle: saline): 0 of 10
- T/C (T/C endpoint: median survival time, dose: 1.35 mg/kg/injection, schedule: Q01DX005 (ip), vehicle: saline): 146 % of control
- T/C (T/C endpoint: median survival time, dose: 1.35 mg/kg/injection, schedule: Q01DX005 (iv), vehicle: saline): 128 % of control
- T/C (T/C endpoint: median survival time, dose: 1.5 mg/kg/injection, schedule: Q01DX009 (ip), vehicle: Klucel (hydroxypropylcellulose) (HPC)): 143, 171, 182, 187 % of control
- survivor count (T/C endpoint: median survival time, dose: 1.69 mg/kg/injection, schedule: Q03HX008 (ip), vehicle: saline): 0 of 10
- survivor count (T/C endpoint: median survival time, dose: 2.25 mg/kg/injection, schedule: Q03HX024 (ip), vehicle: saline): 0 of 10
- T/C (T/C endpoint: median survival time, dose: 2.7 mg/kg/injection, schedule: Q01DX005 (iv), vehicle: saline): 148 % of control
- T/C (T/C endpoint: median survival time, dose: 3.0 mg/kg/injection, schedule: Q01DX009 (ip), vehicle: Klucel (hydroxypropylcellulose) (HPC)): 101 [4 of 6 alive], 160 [9 of 10 alive], 212, 214 % of control
- T/C (T/C endpoint: median survival time, dose: 3.0 mg/kg/injection, schedule: Q01DX009 (ip), vehicle: saline): 146 % of control [9 of 10 alive]
- T/C (T/C endpoint: median survival time, dose: 3.0 mg/kg/injection, schedule: Q01DX009 (ip), vehicle: water): 147 % of control
- survivor count (T/C endpoint: median survival time, dose: 3.38 mg/kg/injection, schedule: Q03HX008 (ip), vehicle: saline): 0 of 10
- T/C (T/C endpoint: median survival time, dose: 4.5 mg/kg/injection, schedule: Q04DX003 (ip), vehicle: saline): 146 % of control [9 of 10 alive]
- survivor count (T/C endpoint: median survival time, dose: 5.4 mg/kg/injection, schedule: Q01DX005 (ip), vehicle: saline): 4 of 10
- survivor count (T/C endpoint: median survival time, dose: 5.4 mg/kg/injection, schedule: Q01DX005 (iv), vehicle: saline): 1 of 10
- survivor count (T/C endpoint: median survival time, dose: 6.0 mg/kg/injection, schedule: Q01DX009 (ip), vehicle: Klucel (hydroxypropylcellulose) (HPC)): 0 of 6, 1 of 6, 5 of 10, 4 of 6
- survivor count (T/C endpoint: median survival time, dose: 6.0 mg/kg/injection, schedule: Q01DX009 (ip), vehicle: saline): 2 of 10, 3 of 10, 7 of 10
- survivor count (T/C endpoint: median survival time, dose: 6.75 mg/kg/injection, schedule: Q01DX001 (ip), vehicle: saline): 5 of 10
- survivor count (T/C endpoint: median survival time, dose: 6.75 mg/kg/injection, schedule: Q01DX001 (iv), vehicle: saline): 3 of 10
- survivor count (T/C endpoint: median survival time, dose: 6.75 mg/kg/injection, schedule: Q03HX008 (ip), vehicle: saline): 0 of 10
- survivor count (T/C endpoint: median survival time, dose: 9.0 mg/kg/injection, schedule: Q04DX003 (ip), vehicle: saline): 1 of 10
- survivor count (T/C endpoint: median survival time, dose: 10.8 mg/kg/injection, schedule: Q01DX005 (ip), vehicle: saline): 0 of 10
- survivor count (T/C endpoint: median survival time, dose: 12.0 mg/kg/injection, schedule: Q01DX009 (ip), vehicle: saline): 0 of 10
- survivor count (T/C endpoint: median survival time, dose: 13.5 mg/kg/injection, schedule: Q01DX001 (ip), vehicle: saline): 3 of 10
- survivor count (T/C endpoint: median survival time, dose: 13.5 mg/kg/injection, schedule: Q01DX001 (iv), vehicle: saline): 0 of 10
- survivor count (T/C endpoint: median survival time, dose: 18.0 mg/kg/injection, schedule: Q04DX003 (ip), vehicle: saline): 0 of 10
- survivor count (T/C endpoint: median survival time, dose: 27.0 mg/kg/injection, schedule: Q01DX001 (ip), vehicle: saline): 0 of 10
- survivor count (T/C endpoint: median survival time, dose: 27.0 mg/kg/injection, schedule: Q01DX001 (iv), vehicle: saline): 0 of 10
- survivor count (T/C endpoint: median survival time, dose: 48.0 mg/kg/injection, schedule: Q01DX009 (oral), vehicle: saline): 0 of 10
- survivor count (T/C endpoint: median survival time, dose: 54.0 mg/kg/injection, schedule: Q01DX001 (ip), vehicle: saline): 0 of 10

SMILES: CC(C)C(Br)C(Br)c1ccccc1 (configuration not stated)
- survivor count (T/C endpoint: mean survival time, dose: 400.0 mg/kg/injection, schedule: Q04DX003 (ip), vehicle: saline): 5 of 6

SMILES: O=C1C=CC(=O)N1c1ccc(Br)cc1Cl
- survivor count (T/C endpoint: mean survival time, dose: 100.0 mg/kg/injection, schedule: Q01DX009 (ip), vehicle: saline with Tween-80): 0 of 6
- survivor count [2]: 0 of 6
- survivor count (T/C endpoint: mean survival time, dose: 200.0 mg/kg/injection, schedule: Q01DX009 (ip), vehicle: saline with Tween-80): 0 of 6
- survivor count [3]: 0 of 6
- survivor count [1]: 0 of 6
- survivor count [4]: 0 of 6
